Assay results from patent publication US4148996A, “3,7-Disubstituted cephalosporins” (Societa Farmaceutici Italia S.p.A., priority 1976, dated 1979).
For at least one compound, name, drawing or mass did not settle the structure.

Test system: Staphylococcus aureus
Experiment: in vivo therapeutic activity on mice experimentally infected with Staphylococcus aureus
Parameters: species or system male Swiss Cobs albino mice
Details: in words, compared with cephazolin and cephalothin
Experimental: In vivo tests for therapeutic activity were carried out on mice experimentally infected with Staphylococcus aureus and Salmonella abortivoequina (Infective dose: 2 LD50 /mouse i.p.); groups of 6 male Swiss Cobs albino mice were used. The infected animals were treated by the subcutaneous route 4 h after infection. The mortality rate was recorded every day for 7 days. The activity was assessed as ED50 (Dose effective in curing 50% of the infected mice as mg/Kg--see Reed and Muench, Am. J. Hyg. 27, 493, 1938.)

With `O=C(Cc1cccs1)NC1C(=O)N2C(C(=O)O)=C(CSc3cnccn3)CSC12` (centres unmarked) [Compound 314, 7-(2-thienyl)-acetamido-3-pyrazinylthiomethyl-3-cephem-4-carboxylic acid] the “effectiveness on experimental staphylococcal infections” value was “more effective than cephazolin and cephalothin”.
`COc1cncc(SCC2=C(C(=O)O)N3C(=O)C(NC(=O)Cc4cccs4)C3SC2)n1` (centres unmarked) [Compound 321, 7-(2-Thienyl)-acetamido-3-(6-methoxypyrazin-2-ylthiomethyl)-3-cephem-4-carboxylic acid] was tested, and the “effectiveness on experimental staphylococcal infections” value was “more effective than cephazolin and cephalothin”.
